Data published in the supplement of paper PMC12282887.
These are raw signals, not scaled to a control.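 For antimicrobials the highest concentration approximated the MIC. Most other compounds topped out at 500 µM, and known inducer-like compounds reached up to 1 mM. Inocula for deletion strains were tenfold smaller, and any well growing below 10% of the overall median was considered non-growing.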

Test system: Escherichia coli BW25113
Assay: growth (OD600 area under curve, 8 h) (OD600 x h); higher = more growth
Protocol: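 E. coli BW25113 reporter strains (wild type, ΔmarA, ΔsoxS, Δrob, each carrying one of 8 lux reporter plasmids) were grown in 40 µl LB in 384-well plates at 37°C, 800 rpm, with each compound at 4 two-fold concentrations, in biological duplicates. Growth is the baseline-corrected OD600 area under the curve over 8 h (0-8 h WT, 1-9 h deletion strains).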

NCC[C@H](O)C(=O)N[C@@H]1C[C@H](N)[C@@H](O[C@H]2O[C@H](CN)[C@@H](O)[C@H](O)[C@H]2O)[C@H](O)[C@H]1O[C@H]1O[C@H](CO)[C@@H](O)[C@H](N)[C@H]1O [Amikacin]
growth
Details | reporter plasmid: EVC | reporter plasmid: acrABp | reporter plasmid: marRABp | reporter plasmid: micFp | reporter plasmid: ompFp | reporter plasmid: robp | reporter plasmid: soxSp | reporter plasmid: tolCp
0.07 µg/ml, genetic background: wild type | 2.69 | 3.3 | 3.365 | 2.81 | 3.09 | 3.33 | 2.64 | 2.772
0.07 µg/ml, genetic background: ΔmarA | 2.89 | 4.08 | 3.79 | 3.07 | 3.64 | 3.95 | 2.95 | 2.89
0.07 µg/ml, genetic background: Δrob | 2.71 | 3.18 | 3.5 | 2.66 | 2.71 | 2.89 | 2.31 | 2.76
0.07 µg/ml, genetic background: ΔsoxS | 2.86 | 2.98 | 3.17 | 2.61 | 3.11 | 3.28 | 3.1 | 2.67
0.15 µg/ml, genetic background: wild type | 2.699 | 3.32 | 3.33 | 2.63 | 2.992 | 3.31 | 2.66 | 2.79
0.15 µg/ml, genetic background: ΔmarA | 2.97 | 4.09 | 3.7 | 3.09 | 3.47 | 3.72 | 2.56 | 2.83
0.15 µg/ml, genetic background: Δrob | 2.75 | 2.87 | 3.19 | 2.59 | 2.54 | 2.68 | 2.4 | 2.53
0.15 µg/ml, genetic background: ΔsoxS | 2.89 | 2.83 | 3.07 | 2.48 | 3.08 | 3.31 | 3.06 | 2.601
0.29 µg/ml, genetic background: wild type | 2.28 | 2.71 | 3.18 | 1.82 | 2.5 | 2.93 | 2.19 | 2.35
0.29 µg/ml, genetic background: ΔmarA | 2.27 | 3.87 | 3.32 | 2.38 | 3.03 | 3.74 | 1.86 | 1.91
0.29 µg/ml, genetic background: Δrob | 2.4 | 2.82 | 3.12 | 2.11 | 2.37 | 2.36 | 1.57 | 2.01
0.29 µg/ml, genetic background: ΔsoxS | 2.56 | 2.73 | 3.06 | 2.16 | 2.68 | 3.22 | 2.56 | 2.19
0.59 µg/ml, genetic background: wild type | 0.271 | 0.0295 | -0.0015 | -0.00258 | -0.000494 | 0.0163 | -0.0217 | 0.491
0.59 µg/ml, genetic background: ΔmarA | 0.265 | -0.0187 | 0.0198 | 0.281 | 0.025 | 0.735 | -0.033 | 0.222
0.59 µg/ml, genetic background: Δrob | 0.377 | 0.0115 | 0.027 | 0.0306 | 0.00638 | -0.0195 | -0.00888 | 0.195
0.59 µg/ml, genetic background: ΔsoxS | 0.389 | 0.0207 | 0.0277 | 0.0578 | -0.022 | 0.0275 | 0.00942 | 0.397

NC(=O)c1cc[n+](CC2=C(C(=O)[O-])N3C(=O)[C@@H](NC(=O)[C@@H](c4ccccc4)S(=O)(=O)O)[C@H]3SC2)cc1 [Cefsulodin]
growth
Details | reporter plasmid: EVC | reporter plasmid: acrABp | reporter plasmid: marRABp | reporter plasmid: micFp | reporter plasmid: ompFp | reporter plasmid: robp | reporter plasmid: soxSp | reporter plasmid: tolCp
1.7 µg/ml, genetic background: wild type | 3.29 | 3.12 | 3.31 | 3 | 3.17 | 3.32 | 3.06 | 3.14
1.7 µg/ml, genetic background: ΔmarA | 2.93 | 3.76 | 3.45 | 3.37 | 3.3 | 3.82 | 2.97 | 3.076
1.7 µg/ml, genetic background: Δrob | 3.097 | 3.26 | 3.37 | 2.93 | 2.84 | 2.97 | 2.74 | 3.17
1.7 µg/ml, genetic background: ΔsoxS | 3.28 | 3.4 | 3.36 | 3.11 | 3.3 | 3.39 | 3.23 | 3.2
3.5 µg/ml, genetic background: wild type | 2.99 | 3.21 | 3.35 | 2.83 | 3.0482 | 3.331 | 3.002 | 3.084
3.5 µg/ml, genetic background: ΔmarA | 2.83 | 3.77 | 3.42 | 3.27 | 3.22 | 3.87 | 2.832 | 3.08
3.5 µg/ml, genetic background: Δrob | 2.96 | 2.96 | 3.3 | 2.772 | 2.61 | 2.77 | 2.46 | 3.01
3.5 µg/ml, genetic background: ΔsoxS | 3.11 | 3.22 | 3.04 | 3.01 | 3.15 | 3.17 | 3.09 | 3.09
6.9 µg/ml, genetic background: wild type | 3.14 | 3.33 | 3.37 | 2.84 | 3.247 | 3.366 | 2.74 | 2.84
6.9 µg/ml, genetic background: ΔmarA | 2.87 | 3.67 | 3.32 | 3.34 | 3.41 | 3.87 | 2.73 | 2.99
6.9 µg/ml, genetic background: Δrob | 3.04 | 3.37 | 3.39 | 2.8 | 2.89 | 2.98 | 2.54 | 2.9
6.9 µg/ml, genetic background: ΔsoxS | 3.04 | 3.48 | 3.36 | 2.97 | 3.49 | 3.39 | 2.94 | 2.9
13.9 µg/ml, genetic background: wild type | 2.68 | 2.05 | 2.04 | 2.18 | 1.15 | 1.99 | 2.22 | 2.747
13.9 µg/ml, genetic background: ΔmarA | 2.63 | 2.35 | 2.14 | 2.62 | 1.21 | 2.73 | 2.09 | 2.44
13.9 µg/ml, genetic background: Δrob | 2.751 | 1.97 | 2.44 | 2.302 | 1.68 | 1.07 | 2.03 | 2.789
13.9 µg/ml, genetic background: ΔsoxS | 2.8 | 2.32 | 2.38 | 2.46 | 0.674 | 1.69 | 2.42 | 2.859

COc1c(N2C[C@@H]3CCCN[C@@H]3C2)c(F)cc2c(=O)c(C(=O)O)cn(C3CC3)c12 [Moxifloxacin]
growth
Details | reporter plasmid: EVC | reporter plasmid: acrABp | reporter plasmid: marRABp | reporter plasmid: micFp | reporter plasmid: ompFp | reporter plasmid: robp | reporter plasmid: soxSp | reporter plasmid: tolCp
0.011 µg/ml, genetic background: wild type | 2.79 | 3.07 | 3.05 | 2.94 | 2.8 | 3.12 | 2.97 | 2.945
0.011 µg/ml, genetic background: ΔmarA | 3.11 | 3.52 | 3.35 | 3.18 | 3.06 | 3.22 | 3 | 2.7
0.011 µg/ml, genetic background: Δrob | 2.79 | 2.81 | 3.32 | 3.19 | 2.43 | 2.53 | 2.85 | 3.02
0.011 µg/ml, genetic background: ΔsoxS | 2.94 | 2.92 | 3.03 | 2.67 | 2.7 | 2.92 | 2.97 | 2.85
0.022 µg/ml, genetic background: wild type | 2.426 | 2.27 | 2.82 | 2.37 | 2.26 | 2.63 | 2.698 | 2.48
0.022 µg/ml, genetic background: ΔmarA | 2.1 | 2.29 | 2 | 2.6 | 2.46 | 2.06 | 2.7 | 1.6
0.022 µg/ml, genetic background: Δrob | 2.32 | 2.2 | 2.32 | 2.61 | 1.76 | 1.68 | 2.78 | 2.08
0.022 µg/ml, genetic background: ΔsoxS | 2.55 | 2.47 | 2.75 | 2.05 | 2.05 | 2.42 | 2.5 | 2.48
0.044 µg/ml, genetic background: wild type | 0.933 | 0.392 | 1.03 | 0.861 | 0.439 | 0.869 | 2.38 | 1.14
0.044 µg/ml, genetic background: ΔmarA | 0.243 | -0.108 | 0.0613 | 0.789 | 0.222 | -0.056 | 2.16 | 0.0944
0.044 µg/ml, genetic background: Δrob | 0.631 | 0.123 | 0.165 | 0.635 | -0.0248 | -0.00854 | 2.34 | 0.276
0.044 µg/ml, genetic background: ΔsoxS | 0.885 | 0.779 | 0.833 | 0.548 | 0.143 | 0.3663 | 1.17 | 0.991
0.088 µg/ml, genetic background: wild type | 0.192 | -0.265 | 0.145 | 0.169 | 0.0195 | 0.1 | 0.209 | 0.185
0.088 µg/ml, genetic background: ΔmarA | -0.0354 | -0.219 | 0.00943 | -0.0451 | -0.0948 | -0.0503 | -0.0627 | -0.0218
0.088 µg/ml, genetic background: Δrob | -0.103 | -0.337 | -0.01 | -0.0302 | -0.1 | -0.0635 | -0.0156 | -0.0412
0.088 µg/ml, genetic background: ΔsoxS | 0.0175 | -0.0409 | 0.0222 | -0.0458 | 0.00152 | -0.0068 | -0.0427 | -0.00721
